Results are given in words; binding and its absence hold for the method and conditions named. Binding calls can cover weak binding; strength is not graded here.
biological target: Cyno MAdCAM protein (cyno); assay: ELISA

Row | binding | Binder
1 | binds | MAdCAM antibody Clone ID 17 of Table 6 (scFv) (scFv) scFv: EVQLLESGGGLVQPGGSLRLSCAASGFTFSDSAMHWVRQAPGKGLEWVSAISGSGSTIYYADSVKGRFTISRDNSKNTLYLQMNSLRAEDTAVYYCVSDIAVAGHWYFDLWGRGTLVTVSSGGGGSGGGGSGGGGSGGGGSDIQMTQSPSSLSASVGDRVTITCRASQSISTFLNWYQQKPGKAPKLLIYAASRLEGGVPSRFSGSGSGTDFTLTISSLQPEDFATYYCQQANSFPLTFGPGTKVDIK
2 | binds | MAdCAM antibody Clone ID 25 of Table 6 (scFv) (scFv) scFv: QVQLVQSGAEVKKPGASVKVSCKASGYTLTTWYMYWVRQAPGQGLEWMGWINPNRGATNYAQKFQGRVTMTRDTSTSTVYMELSSLRSEDTAVYYCAKGDLWGAMDVWGQGTLVTVSSGGGGSGGGGSGGGGSGGGGSDIQMTQSPSSLSASVGDRVTITCRASDNIGSWLAWYQQKPGKAPKLLIYAASSLQSGVPSRFSGSGSGTDFTLTISSLQPEDFATYYCQQGYSTPPTFGQGTKVEIK
3 | binds | MAdCAM antibody Clone ID 26 of Table 6 (scFv) (scFv) scFv: QVQLVQSGAEVKKPGASVKVSCKASGYTLTTWYMYWVRQAPGQGLEWMGWINPNRGATNYAQKFQGRVTMTRDTSTSTVYMELSSLRSEDTAVYYCAKGDLWGAMDVWGQGTTVTVSSGGGGSGGGGSGGGGSGGGGSDIQMTQSPSSLSASVGDRVTITCRASDNIGSWLAWYQQKPGKAPKLLIYAASSLQSGVPSRFSGSGSGTDFTLTISSLQPEDFATYYCQQGYSTPPTFGQGTKVEIK
4 | binds | MAdCAM antibody Clone ID 30 of Table 6 (scFv) (scFv) scFv: QVQLVQSGAEVKKPGASVKVSCKASGYTLTTWYMYWVRQAPGQGLEWMGWINPNRGATNYAQKFQGRVTMTRDTSTSTVYMELSSLRSEDTAVYYCAKGDLWGAMDVWGQGTLVTVSSGGGGSGGGGSGGGGSGGGGSDIQMTQSPSSLSASVGDRVTITCRASDNIGSWLAWYQQKPGKAPKLLIYAASSLQSGVPSRFSGSGSGTDFTLTISSLQPEDFATYYCQQGYSTPPTFGQGTKVEIK
5 | binds | MAdCAM antibody Clone ID 31 of Table 6 (scFv) (scFv) scFv: QVQLVQSGAEVKKPGASVKVSCKASGYTFTSYYMHWVRQAPGQGLEWMGIINPSGGSTSYAQKFQGRVTMTRDTSTSTVYMELSSLRSEDTAVYYCARDTGYSYGRYYYYGMDVWGQGTLVTVSSGGGGSGGGGSGGGGSGGGGSDIQMTQSPSSLSASVGDRVTITCRASQSIGRWLAWYQQKPGKAPKLLIYDASNLQSGVPSRFSGSGSGTDFTLTISSLQPEDFATYYCQQSYSIPITFGQGTKVEIK
6 | binds | MAdCAM antibody Clone ID 36 of Table 6 (scFv) (scFv) scFv: QVQLVQSGAEVKKPGASVKVSCKASGYTFTGHYMHWVRQAPGQGLEWMGIINPSGGSTSYAQKFQGRVTMTRDTSTSTVYMELSSLRSEDTAVYYCARDTGYSYGRYYYYGMDVWGQGTTVTVSSGGGGSGGGGSGGGGSGGGGSDIQMTQSPSSLSASVGDRVTITCRASQSIGRWLAWYQQKPGKAPKLLIYDASNLQSGVPSRFSGSGSGTDFTLTISSLQPEDFATYYCQQSYSIPITFGGGTKVEIK
7 | binds | MAdCAM antibody Clone ID 29 of Table 6 (scFv) (scFv) scFv: QVQLVQSGAEVKKPGASVKVSCKASGYTFTSYYMHWVRQAPGQGLEWMAWMNPNSGNTGYAQKFQGRVTMTRDTSTSTVYMELSSLRSEDTAVYYCARDYDFWSGSLGYWGQGTLVTVSSGGGGSGGGGSGGGGSGGGGSDIQMTQSPSSLSASVGDRVTITCRASQGISNYLAWYQQKPGKAPKLLIYAASSLQSGVPSRFSGSGSGTDFTLTISSLQPEDFATYYCQQSYSTPWTFGQGTKVEIK
8 | binds | MAdCAM antibody Clone ID 27 of Table 6 (scFv) (scFv) scFv: QVQLVQSGAEVKKPGASVKVSCKASGYTFTGYYIHWVRQAPGQGLEWMGWMNPNSGNTGYAQKFQGRVTMTRDTSTSTVYMELSSLRSEDTAVYYCARDPGFLGYCSGGSCYDGWFDPWGQGTLVTVSSGGGGSGGGGSGGGGSGGGGSDIQMTQSPSSLSASVGDRVTITCRASQSISSYLHWYQQKPGKAPKLLIYAASSLQSGVPSRFSGSGSGTDFTLTISSLQPEDFATYYCQQSYTAPYTFGQGTKLEIK
9 | binds | MAdCAM antibody Clone ID 38 of Table 6 (scFv) (scFv) scFv: EVQLLESGGGLVQPGGSLRLSCAASGFTFGSYSMSWVRQAPGKGLEWVSAIGTGGGTYYADSVKGRFTISRDNSKNTLYLQMNSLRAEDTAVYYCAKGTPYYYYYGMDVWGQGTMVTVSSGGGGSGGGGSGGGGSGGGGSDIQMTQSPSSLSASVGDRVTITCRASQPLSNWLAWYQQKPGKAPKLLIYAASSLQSGVPSRFSGSGSGTDFTLTISSLQPEDFATYYCQQAISFPLTFGGGTKVEIK
10 | binds | MAdCAM antibody Clone ID 33 of Table 6 (scFv) (scFv) scFv: QVQLVQSGAEVKKPGASVKVSCKASGYTFTSYGISWVRQAPGQGLEWMGWMHPKSGDTGLTQKFQGRVTMTRDTSTSTVYMELSSLRSEDTAVYYCARDTPYYYYGMDVWGQGTTVTVSSGGGGSGGGGSGGGGSGGGGSDIQMTQSPSSLSASVGDRVTITCRASQSISSWLAWYQQKPGKAPKLLIYAASSLQSGVPSRFSGSGSGTDFTLTISSLQPEDFATYYCQQSYSVPITFGQGTKVEIK
11 | binds | MAdCAM antibody Clone ID 35 of Table 6 (scFv) (scFv) scFv: EVQLLESGGGLVQPGGSLRLSCAASGFSFSSYTMNWVRQAPGKGLEWVSFITSSSRTIYYADSVKGRFTISRDNSKNTLYLQMNSLRAEDTAVYYCARDRRGDYGDSWYFDLWGRGTLVTVSSGGGGSGGGGSGGGGSGGGGSEIVMTQSPATLSVSPGERATLSCRASQSVRNYLAWYQQKPGQAPRLLIYGASTRATGIPARFSGSGSGTEFTLTISSLQSEDFAVYYCQQYGSSPLTFGGGTKVEIK
12 | binds | MAdCAM antibody Clone ID 21 of Table 6 (scFv) (scFv) scFv: EVQLLESGGGLVQPGGSLRLSCAASGFTFSNAWMSWVRQAPGKGLEWVSTIVGNGGATYYADSVKGRFTISRDNSKNTLYLQMNSLRAEDTAVYYCARDNPLRWQGMDVWGQGTLVTVSSGGGGSGGGGSGGGGSGGGGSDIQMTQSPSSLSASVGDRVTITCRASQDISNYLNWYQQKPGKAPKLLIYAASSLQSGVPSRFSGSGSGTDFTLTISSLQPEDFATYYCQQSYSIPPTFGPGTKVDIK

biological target: Cyno MAdCAM protein (cyno); assay: Octet

Row | binding | Binder
13 | binds | MAdCAM antibody Clone ID 61 of Table 6 (scFv) (scFv) scFv: EVQLLESGGGLVQPGGSLRLSCAASEFTFSNAWMSWVRQAPGKGLEWVASISSTSAYIDYADSVKGRFTISRDNSKNTLYLQMNSLRAEDTAVYYCAREVVGATTFDYWGQGTLVTVSSGGGGSGGGGSGGGGSGGGGSDIQMTQSPSSLSASVGDRVTITCRASQSISTWLAWYQQKPGKAPKLLIYAASSLQSGVPSRFSGSGSGTDFTLTISSLQPEDFATYYCQQANAFPPTFGQGTRLEIK
14 | binds | MAdCAM antibody Clone ID 4 of Table 7 (IgG) (antibody, V domains shown) VH: QVQLVQSGAEVKKPGASVKVSCKASGGTFSSYAISWVRQAPGQGLEWMGSINPSGDTTSYAQKFQGRVTMTRDTSTSTVYMELSSLRSEDTAVYYCAKDKAQWLVGYFDYWGQGTLVTVSS VL: DIQMTQSPSSLSASVGDRVTITCQASQDISNSLNWYQQKPGKAPKLLIYAASSLQSGVPSRFSGSGSGTDFTLTISSLQPEDFATYYCQQSYSSVITFGQGTKVEIK
15 | binds | MAdCAM antibody Clone ID 5 of Table 7 (IgG) (antibody, V domains shown) VH: EVQLLESGGGLVQPGGSLRLSCAASGFTFSSYWMHWVRQAPGKGLEWVSSISPGGSNIDYADSVKGRFTISRDNSKNTLYLQMNSLRAEDTAVYYCAREVQLSHYDYWGQGTLVTVSS VL: DIQMTQSPSSLSASVGDRVTITCRASQGISNSLAWYQQKPGKAPKLLIYGASSLQSGVPSRFSGSGSGTDFTLTISSLQPEDFATYYCQQANSFPFTFGQGTKVEIK
16 | binds | MAdCAM antibody Clone ID 8 of Table 7 (IgG) (antibody, V domains shown) VH: QVQLVQSGAEVKKPGASVKVSCKASGYTFTGYHIHWVRQAPGQGLEWMGIINPSGGSTIYAQKFQGRVTMTRDTSTSTVYMELSSLRSEDTAVYYCAKDWSSWYLGPFDYWGQGTLVTVSS VL: DIQMTQSPSSLSASVGDRVTITCRASQNISSSLNWYQQKPGKAPKLLIYAASSLQSGVPSRFSGSGSGTDFTLTISSLQPEDFATYYCQQSYTTPYTFGQGTKVEIK
17 | binds | MAdCAM antibody Clone ID 66 of Table 6 (scFv) (scFv) scFv: EVQLLESGGGLVQPGGSLRLSCAASGFTFSSYWMHWVRQAPGKGLEWVAAISYDGKYKDYEDSVKGRFTISRDNSKNTLYLQMNSLRAEDTAVYYCARENKQWLASFDYWGQGTLVTVSSGGGGSGGGGSGGGGSGGGGSDIQMTQSPSSLSASVGDRVTITCQASQDISNFVNWYQQKPGKAPKLLIYAANLRSGVPSRFSGSGSGTDFTLTISSLQPEDFATYYCQQANSFPVTFGPGTKVDIK
18 | binds | MAdCAM antibody Clone ID 60 of Table 6 (scFv) (scFv) scFv: EVQLLESGGGLVQPGGSLRLSCAASGFTFDDYTMHWVRQAPGKGLEWVSDISGSGGSTYYADSVKGRFTISRDNSKNTLYLQMNSLRAEDTAVYYCAKDVVVAGTPLHFDYWGQGTLVTVSSGGGGSGGGGSGGGGSGGGGSDIQMTQSPSSLSASVGDRVTITCQASQDISNYLNWYQQKPGKAPKLLIYAASYLQSGVPSRFSGSGSGTDFTLTISSLQPEDFATYYCQQAHNYPITFGQGTRLEIK
19 | binds | MAdCAM antibody Clone ID 64 of Table 6 (scFv) (scFv) scFv: EVQLLESGGGLVKPGGSLRLSCAASGFAFSSHWMHWVRQAPGKGLEWVAGTSGSGESRDYADFVKGRFTISRDDSKNTLYLQMNSLKTEDTAVYYCARETYYYYYMDVWGKGTTVTVSSGGGGSGGGGSGGGGSGGGGSDIQMTQSPSSLSASVGDRVTITCRASQGISNYLAWYQQKPGKAPKLLIYDAANLEGGVPSRFSGSGSGTDFTLTISSLQPEDFATYYCQQSDIFPPTFGQGTKVEIK
20 | binds | MAdCAM antibody Clone ID 4 of Table 6 (scFv) (scFv) scFv: QVQLVQSGAEVKKPGASVKVSCKASGGTFSSYAISWVRQAPGQGLEWMGSINPSGDTTSYAQKFQGRVTMTRDTSTSTVYMELSSLRSEDTAVYYCAKDKAQWLVGYFDYWGQGTLVTVSSGGGGSGGGGSGGGGSGGGGSDIQMTQSPSSLSASVGDRVTITCQASQDISNSLNWYQQKPGKAPKLLIYAASSLQSGVPSRFSGSGSGTDFTLTISSLQPEDFATYYCQQSYSSVITFGQGTKVEIK
21 | binds | MAdCAM antibody Clone ID 65 of Table 6 (scFv) (scFv) scFv: QVQLVQSGAEVKKPGASVKVSCKASGYTFTRHWIHWVRQAPGQGLEWMGWINVKTGGAGYAQKFQGRVTMTRDTSTSTVYMELSSLRSEDTAVYYCARESSGWYGTDVWGQGTTVTVSSGGGGSGGGGSGGGGSGGGGSDIQMTQSPSSLSASVGDRATITCRASQSISNYLAWYQQKPGKAPKLLIYAASSLQSGVPSRFSGSGSGTDFTLTISSLQPEDFATYYCQQSNSFPLTFGGGTKVEIK
